Data taken from the supplement of paper PMC12823440, “Inhibitors supercharge kinase turnover through native proteolytic circuits” (Nature, 2025).
Counter-ions that a name gives are not always drawn. Some of the results follow. Hit calls seldom repeat between salt and free forms of one compound.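 Kinases, fused to nanoluciferase, were expressed in K562 cells; luminescence was measured every 4 h from 2 to 18 h as percent of control (DMSO = 100%, positive control = 0%). A time point is decreased if signal falls significantly (2 sigma). Hits were called by the authors by a rule that is not shown; the count of time points alone does not decide it.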

Sequences of proteins named here, by UniProt entry; tags and fusion partners are left off. A change or cut given only in a name is not applied to a line headed by its entry.
UniProt P23458: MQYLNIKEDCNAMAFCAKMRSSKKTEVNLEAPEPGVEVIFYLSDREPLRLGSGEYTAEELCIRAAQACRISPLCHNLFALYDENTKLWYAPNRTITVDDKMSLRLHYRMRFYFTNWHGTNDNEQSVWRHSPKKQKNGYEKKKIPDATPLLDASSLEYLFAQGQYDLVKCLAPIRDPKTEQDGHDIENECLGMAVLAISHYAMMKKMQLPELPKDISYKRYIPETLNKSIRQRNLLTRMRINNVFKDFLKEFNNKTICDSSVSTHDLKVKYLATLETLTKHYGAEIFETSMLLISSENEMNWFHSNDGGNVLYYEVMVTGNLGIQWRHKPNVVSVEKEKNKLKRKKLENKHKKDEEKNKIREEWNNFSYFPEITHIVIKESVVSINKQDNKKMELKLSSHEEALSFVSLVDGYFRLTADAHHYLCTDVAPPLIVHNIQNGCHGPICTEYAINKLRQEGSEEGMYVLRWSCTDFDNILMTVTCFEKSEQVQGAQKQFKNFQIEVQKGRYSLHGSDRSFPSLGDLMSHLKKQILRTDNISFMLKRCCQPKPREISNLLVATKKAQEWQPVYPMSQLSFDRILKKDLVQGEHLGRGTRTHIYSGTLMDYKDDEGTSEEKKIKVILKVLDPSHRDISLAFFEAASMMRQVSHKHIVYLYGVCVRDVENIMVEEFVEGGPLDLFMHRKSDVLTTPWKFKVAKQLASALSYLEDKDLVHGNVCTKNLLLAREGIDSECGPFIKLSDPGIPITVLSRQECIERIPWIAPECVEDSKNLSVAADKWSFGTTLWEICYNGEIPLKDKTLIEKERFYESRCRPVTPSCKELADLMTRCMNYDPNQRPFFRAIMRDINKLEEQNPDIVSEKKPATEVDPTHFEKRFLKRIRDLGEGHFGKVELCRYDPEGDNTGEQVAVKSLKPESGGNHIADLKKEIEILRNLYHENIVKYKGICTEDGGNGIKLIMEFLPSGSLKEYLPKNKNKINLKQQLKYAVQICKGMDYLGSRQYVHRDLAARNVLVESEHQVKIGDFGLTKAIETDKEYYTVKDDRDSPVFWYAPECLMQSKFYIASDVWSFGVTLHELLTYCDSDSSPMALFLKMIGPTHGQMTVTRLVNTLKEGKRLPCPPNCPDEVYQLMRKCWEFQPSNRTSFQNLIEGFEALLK

What follows are compounds tested against JAK1 (UniProt P23458) (assay: kinase-Nluc reporter destabilization hit call (1 = scored as downregulated) (binary); higher = compound decreases kinase abundance). Settings: K562; 2-18 h.

kinase-Nluc reporter destabilization hit call, inactive:
Cn1cc(Nc2nccc(N3C[C@H]4CC[C@@H](C3)N4C(=O)[C@@H]3CC3(F)F)n2)cn1 (10 µM) 0
CC(C)=CC(=O)CCC(=O)N1CCN(Cc2cc3nc(-c4cccc5[nH]ncc45)nc(N4CCOCC4)c3s2)CC1 (10 µM) 0
CN(C)CCN(Cc1ccc(Cl)cc1)c1ccccn1 [Chloropyramine hydrochloride] (10 µM) 0
COc1cc([N+](=O)[O-])ccc1S(=O)(=O)N1C[C@@H](CN2CCN(c3ccccn3)CC2)[C@H](c2cccc(F)c2)C1 (relative stereo) (10 µM) 0
Cc1noc(C)c1-c1ccc(-c2cc(C(N)=O)c(NC(N)=O)s2)c(O[C@H]2CCNC2)c1 (10 µM) 0
CC(C)(C)NC(=O)c1cncn1C1CCN(c2ccc(-c3nnc(C(F)(F)F)o3)cn2)CC1 (10 µM) 0
COc1cccc(-n2c(=O)[nH]c3cc(Cl)n(-c4ccc(-c5cccc(OC)c5O)cc4)c3c2=O)c1 (2.5 µM) 0
O=C(Nc1cccnc1)c1cc(C(=O)c2c(F)cccc2Br)c[nH]1 (10 µM) 0
O=C(Nc1cc(Oc2cc(F)c(NC(=O)C3(C(=O)Nc4ccc(F)cc4)CC3)cc2F)ccn1)C1CC1 [Altiratinib] (10 µM) 0
O=C1NC(=O)C(=Cc2ccc(-c3ccc(F)cc3)o2)S1 (stereo in doubt) (10 µM) 0
O=C(NC(NC(=S)Nc1ccc(F)c([N+](=O)[O-])c1)C(Cl)(Cl)Cl)C(c1ccccc1)c1ccccc1 (stereo unspecified) (10 µM) 0
Nc1ncnc2c1ncn2[C@@H]1O[C@H](CO)C[C@H]1O [Cordycepin] (10 µM) 0
CC(C)(NS(=O)(=O)c1ccc2c(Cl)cnc(N=C(N)N)c2c1)C(=O)O (10 µM) 0
COc1cc2ncnc(Nc3cccc(Cl)c3)c2cc1OC (10 µM) 0
CCOc1ccc(C(=O)Nc2ncc([N+](=O)[O-])s2)cc1 (10 µM) 0
CC(C)CN[C@H]1CS(=O)(=O)C[C@@H]1S(=O)(=O)c1ccc(Cl)cc1 (10 µM) 0
CCn1c(=O)c(-c2ccc(-c3cncs3)cc2Cl)cc2cnc(Nc3ccc(N4CCN(C)CC4)cc3)nc21 (2.5 µM) 0
C[C@]1(O)CCC[C@@H]1n1c(=O)c(C(F)F)cc2cnc(NC3CCN(S(C)(=O)=O)CC3)nc21 (10 µM) 0
COc1c(NC(=O)C(=O)c2ccc(OCCN3CCOCC3)c3ccccc23)cc(C(C)(C)C)cc1NS(C)(=O)=O (2.5 µM) 0
COc1cc(S(C)(=O)=O)ccc1Nc1nc2ccc(-c3ccc(NC(=O)[C@H](C)c4ccc(F)cc4)cc3)cn2n1 [Empesertib] (10 µM) 0
Nc1cc(Nc2ccc(S(N)(=O)=O)cc2)ncn1 (10 µM) 0
O=C(O)c1cc(O)ccc1O [2,5-Dihydroxybenzoic acid] (10 µM) 0
OCCNC1CCCc2c1[nH]c1ccc(-c3ccccc3)cc21 (stereo unspecified) (2.5 µM) 0
CC(C)CC1(O)CCN(C(=O)c2ccc(NS(=O)(=O)c3cccc4nccnc34)cc2)CC1 (10 µM) 0
CNC(=O)c1ccc(-c2cnc3cnc(C(=O)N(C)c4ccc(Cl)cc4)cn23)cc1 (2.5 µM) 0
Cc1cc(Nc2cc(Cl)nc(Oc3ccc([N+](=O)[O-])cc3)n2)n[nH]1 [Autophinib] (2.5 µM) 0
CN1CCN(c2ccc(Nc3ncc4nc(Nc5ccccc5)n([C@@H]5CCN(S(=O)(=O)C6CC6)C5)c4n3)cc2)CC1 (2.5 µM) 0
Cc1c(CN2CCN(S(C)(=O)=O)CC2)sc2c(N3CCOCC3)nc(-c3cnc(N)nc3)nc12 (2.5 µM) 0
O=C(NCCCNc1nc(Nc2cccc(NC(=O)N3CCCC3)c2)ncc1I)c1cccs1 (2.5 µM) 0
O=C(/C=C/c1ccc(O[C@@H]2O[C@H](CO)[C@@H](O)[C@H](O)[C@H]2O[C@@H]2OC[C@](O)(CO)[C@H]2O)cc1)c1ccc(O)cc1O [Isoliquiritin apioside] (10 µM) 0
O=C1NC(=O)/C(=C/c2ccc3c(c2)OC(F)(F)O3)S1 (10 µM) 0

Quoted at random: 2 compounds from above.
kinase-Nluc reporter destabilization hit call, inactive:
Cn1cc(Nc2nccc(N3C[C@H]4CC[C@@H](C3)N4C(=O)[C@@H]3CC3(F)F)n2)cn1 (10 µM) 0
Cc1cc(Nc2cc(Cl)nc(Oc3ccc([N+](=O)[O-])cc3)n2)n[nH]1 [Autophinib] (2.5 µM) 0
